Measured values: PMC9917249, “Zinc Inhibits the GABAAR/ATPase during Postnatal Rat Development: The Role of Cysteine Residue” (International Journal of Molecular Sciences, 2023)

Test system: T1, GABAAR in cortical synaptoneurosomes (SNs) / plasma membranes
T1 construct: gene Gabra1; native receptors, cortical synaptoneurosomes or plasma membranes; subunit composition not defined
Assay: MQAE fluorescence, GABA-mediated Cl- influx in synaptoneurosomes
Assay type: biochemical, Rattus norvegicus
Details: adult rats (P35); no Zn; pH 7.4; 50 µM bumetanide

- EC50: 7 µM
Structure (SMILES): NCCCC(=O)O [GABA]
